Measurements reported in article PMC3712487.
These are yes or no findings as the source states them, for the method shown. In cells and extracts the contact can be indirect. Some entries that bind do so weakly or less than the wild type.

Protein sequences, listed by entry. Tags and fused reporters are not part of them. Residues count along the entry.
UniProt P46527: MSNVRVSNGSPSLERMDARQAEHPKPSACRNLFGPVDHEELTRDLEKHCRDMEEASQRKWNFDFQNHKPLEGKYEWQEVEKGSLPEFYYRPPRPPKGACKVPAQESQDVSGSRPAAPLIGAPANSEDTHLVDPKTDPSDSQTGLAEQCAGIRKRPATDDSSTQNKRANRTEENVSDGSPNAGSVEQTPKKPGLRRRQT
UniProt P28072, residues 35-239: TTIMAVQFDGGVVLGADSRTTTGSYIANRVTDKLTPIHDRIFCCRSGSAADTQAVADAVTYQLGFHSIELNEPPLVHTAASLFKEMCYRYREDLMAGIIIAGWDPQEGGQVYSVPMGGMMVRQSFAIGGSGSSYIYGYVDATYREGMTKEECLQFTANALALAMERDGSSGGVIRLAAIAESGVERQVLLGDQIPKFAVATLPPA
UniProt P25788: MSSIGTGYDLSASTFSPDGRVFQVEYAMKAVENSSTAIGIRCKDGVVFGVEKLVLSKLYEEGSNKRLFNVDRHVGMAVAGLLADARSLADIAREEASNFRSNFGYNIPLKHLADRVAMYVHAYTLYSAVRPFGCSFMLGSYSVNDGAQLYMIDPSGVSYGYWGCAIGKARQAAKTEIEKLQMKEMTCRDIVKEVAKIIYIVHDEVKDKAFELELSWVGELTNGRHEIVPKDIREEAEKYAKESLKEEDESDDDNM

What was measured:
[1] = target: p27^Kip1 (endogenous) (human (endogenous in HeLa)) (UniProt P46527); experiment: co-IP; endogenous proteins; lysate of cells synchronized at G0/G1 (50 mM Hepes-NaOH pH 7.5, 100 mM NaCl, 0.5% Nonidet P40, 2.5 mM EDTA, 10% glycerol); monoclonal anti-β1, anti-p27^Kip1 or anti-GFP (control) with protein G-plus-agarose at 4°C; Western blot
[2] = target: proteasomal β1 subunit (endogenous) (human (endogenous in HeLa)) (UniProt P28072); experiment: as above

binding [1] | binding [2] | Substance
binds | – | proteasomal β1 subunit (endogenous) (from UniProt P28072 35-239)
– | binds | p27^Kip1 (endogenous) (from UniProt P46527 1-198)
– | binds | proteasomal α7 subunit (endogenous) (from UniProt P25788 1-255)
